From PMC8406779
No constants are given. Whether binding was seen depends on the method and setting. Binding seen in cells or lysates may run through a third protein. Binding calls can cover weak binding; strength is not graded here.

Target: T1, dmCyclin T (D. melanogaster (endogenous in adult flies)) (UniProt O96433)
T1 sequence: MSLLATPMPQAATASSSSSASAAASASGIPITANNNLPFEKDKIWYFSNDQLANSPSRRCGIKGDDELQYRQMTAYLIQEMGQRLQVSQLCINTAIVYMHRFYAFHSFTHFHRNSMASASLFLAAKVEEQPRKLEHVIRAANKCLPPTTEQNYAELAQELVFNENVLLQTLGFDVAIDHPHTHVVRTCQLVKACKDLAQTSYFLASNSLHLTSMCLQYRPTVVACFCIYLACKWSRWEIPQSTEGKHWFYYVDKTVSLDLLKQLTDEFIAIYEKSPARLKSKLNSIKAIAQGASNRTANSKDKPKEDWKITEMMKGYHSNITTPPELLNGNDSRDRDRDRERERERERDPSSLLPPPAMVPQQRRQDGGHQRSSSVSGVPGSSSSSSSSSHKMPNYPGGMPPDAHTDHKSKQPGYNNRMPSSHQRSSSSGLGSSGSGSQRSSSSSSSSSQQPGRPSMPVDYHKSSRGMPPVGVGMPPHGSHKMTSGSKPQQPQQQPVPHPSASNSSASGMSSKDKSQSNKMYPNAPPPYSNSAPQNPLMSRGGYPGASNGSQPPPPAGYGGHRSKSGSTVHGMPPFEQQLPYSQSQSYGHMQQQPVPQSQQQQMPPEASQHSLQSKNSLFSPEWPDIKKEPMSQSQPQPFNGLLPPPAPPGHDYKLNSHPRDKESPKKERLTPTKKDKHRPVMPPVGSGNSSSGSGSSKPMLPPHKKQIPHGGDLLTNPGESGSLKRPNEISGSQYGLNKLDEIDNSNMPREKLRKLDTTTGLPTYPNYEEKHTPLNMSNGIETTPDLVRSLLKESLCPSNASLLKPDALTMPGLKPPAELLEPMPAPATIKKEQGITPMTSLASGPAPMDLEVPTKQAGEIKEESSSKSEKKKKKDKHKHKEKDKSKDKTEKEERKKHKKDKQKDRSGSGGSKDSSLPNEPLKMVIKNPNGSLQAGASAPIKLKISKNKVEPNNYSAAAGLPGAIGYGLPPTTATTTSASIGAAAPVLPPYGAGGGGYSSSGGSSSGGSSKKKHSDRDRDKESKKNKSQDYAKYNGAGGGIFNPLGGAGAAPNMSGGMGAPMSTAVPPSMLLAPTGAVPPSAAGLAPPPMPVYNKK
Assay: co-IP; antibodies against dmHEXIM or dmCyclin T crosslinked to G/A sepharose magnetic beads; 750 ug protein extract from 60 adult flies, overnight at 4 °C; bound fraction analysed by western blot with dmHEXIM and dmLARP7 antibodies

Row | binding | Substance
1 | binds | dmHEXIM
2 | binds | dmLARP7
